Measured values published in PubChem BioAssay AID651640 (Broad Institute, 2012).
Out of some 350,000 compounds screened, about 6,000 (1.7%) were called active. Inconclusive means that the source gave no clear call. Such entries were picked first, then a sample of the others. Cut-off read from the data, not from the text of the source: active = CPE inhibition above about 20% (passing the limit was not always enough); inconclusive = no clear call, values can overlap the other calls; tested in BHK-21 cells.

Assay: protection of cells from dengue 2 killing – plate reader, single concentration, primary screen (AID 651640);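 note: 0% = median of neutral control wells and 100% = median of positive control wells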
Details: DENV2-infected cells, cytopathic effect rescue, at 9.99 µM, stronger effect = higher value

Row | Structure (SMILES) | CPE inhibition
1 | C[C@@H]1CN([C@@H](C)CO)C(=O)Cc2cc(NS(=O)(=O)c3cn(C)cn3)ccc2O[C@@H]1CN(C)C(=O)Nc1ccc2c(c1)OCO2 | active: 28.2%
2 | COCC(=O)N1CCC(Oc2ccc(C(=O)NCCc3ccncc3)cc2)CC1 | inconclusive: 28.5%
3 | Cc1cccc(-n2c(C)nc3cc(C(=O)NCCN4CCOCC4)ccc32)c1 | inactive: 1.31%
4 | NC(=O)Cc1ccc(C(=O)c2ccccc2)s1 | inconclusive: 24.9%
5 | CS(=O)(=O)c1ccc(Cl)c(NC(=O)COC(=O)c2ncc(Cl)c(Cl)c2Cl)c1 | inconclusive: 27.9%
6 | COCC(=O)N1[C@H](C(=O)Nc2ccccc2)[C@@H](CO)[C@@H]2Cn3c(ccc(-c4cccnc4)c3=O)[C@@H]21 | inactive: -5.3%
7 | CC(C)C[C@@H](CN1C(=O)C(=O)NC[C@@H]1CC(C)C)NC(=O)Cc1ccccc1 | active: 43.4%
8 | O=C(C1CCOCC1)N1C[C@H]2[C@@H](c3ccccc31)[C@@H](CO)N2Cc1ccccc1 | inconclusive: 89.9%
9 | CC(=O)Nc1ccc2c(c1)C(=O)N(C)[C@@H]1CC[C@H](CC(=O)NCC3CC3)O[C@H]1CO2 | inactive: 4.57%
10 | COc1ccccc1NC(=O)CN(Cc1ccco1)C(=O)c1ccc(N2CCCC2=O)cc1 | inconclusive: 23.6%
11 | C[C@H]1CN([C@@H](C)CO)C(=O)Cc2cc(NC(=O)Cc3cn(C)c4ccccc34)ccc2O[C@@H]1CN(C)C(=O)Nc1cccc2ccccc12 | active: 21.3%
12 | OC[C@@H]1[C@H](c2ccc(C#Cc3ccccc3)cc2)[C@H]2CN(Cc3cncnc3)CCCCN12 | inactive: 11.7%
13 | O=C(N[C@@H]1CC[C@H](CCn2cc(-c3cccnc3)nn2)O[C@@H]1CO)c1ccccc1F | inconclusive: 23.8%
14 | Cc1cc(Cl)ccc1OC(C)C(=O)Nc1ccc(C(=O)Nc2ccccc2C(=O)O)cc1 (configuration not stated) | inactive: 19.2%
15 | CCNC(=O)Nc1ccc2c(c1)C(=O)N(C)[C@H]1CC[C@H](CC(=O)Nc3cccc(F)c3)O[C@@H]1CO2 | inconclusive: 33.5%
16 | CCN(C(=O)COC(=O)c1cc2c(s1)CCCCC2)C1CCS(=O)(=O)C1 (configuration not stated) | active: 59.5%
17 | O=c1oc(CCCO)cc2ccc(C#Cc3cccnc3)cc12 | inconclusive: 45%
18 | CCC(=O)Nc1ccc2c(c1)C(=O)N(C)C[C@@H](OC)[C@H](C)CN(C(=O)Nc1ccccc1F)[C@H](C)CO2 | inactive: -0.0925%
19 | C[C@H](CO)N1C[C@H](C)[C@@H](CN(C)Cc2cccnc2)Oc2ncc(C#Cc3cccnc3)cc2C1=O | inactive: -5.71%
20 | O=c1[nH]c2ccccc2s1 | inconclusive: 47%
21 | Cc1ccc(-c2ccc3c(c2)O[C@H](CN(C)Cc2cncnc2)[C@@H](C)CN([C@H](C)CO)S3(=O)=O)cc1 | inconclusive: 29.1%
22 | COc1ccc(NC(=O)Nc2ccc3c(c2)C(=O)N([C@@H](C)CO)C[C@@H](C)[C@@H](CN(C)C(=O)Nc2ccc(OC)cc2)O3)cc1 | active: 25.7%
23 | O=C(N[C@H]1C=C[C@@H](CC(=O)N2CCc3ccccc3C2)O[C@H]1CO)C1CCC1 | inactive: -2.14%
24 | Cc1cccc(NC(=O)CNC(=O)[C@H]2O[C@@H](n3ccc(=O)[nH]c3=O)[C@H](O)[C@@H]2O)c1C | inconclusive: 24.4%

Pulled by compound from the entries so far:
Row | Structure (SMILES) | CPE inhibition
10 | COc1ccccc1NC(=O)CN(Cc1ccco1)C(=O)c1ccc(N2CCCC2=O)cc1 | inconclusive: 23.6%
7 | CC(C)C[C@@H](CN1C(=O)C(=O)NC[C@@H]1CC(C)C)NC(=O)Cc1ccccc1 | active: 43.4%
2 | COCC(=O)N1CCC(Oc2ccc(C(=O)NCCc3ccncc3)cc2)CC1 | inconclusive: 28.5%
19 | C[C@H](CO)N1C[C@H](C)[C@@H](CN(C)Cc2cccnc2)Oc2ncc(C#Cc3cccnc3)cc2C1=O | inactive: -5.71%

Continued.

Row | Structure (SMILES) | CPE inhibition
25 | CC(C)NC(=O)N(C)C[C@H]1OCCCC[C@@H](C)Oc2ccc(NC(=O)c3ccccc3)cc2C(=O)N([C@@H](C)CO)C[C@@H]1C | inactive: -6.46%
26 | CN1C(=O)[C@H]2[C@@H](c3ccc(C(F)(F)F)cc3)N[C@]3(CCCN(Cc4ccc(Br)cc4)C3=O)[C@H]2C1=O | inconclusive: 21.2%
27 | CC(C)c1ccc2c(c1)c(SC(C)(C)C)c(CC(C)(C)C(=O)O)n2Cc1ccc(Cl)cc1 | inconclusive: 33.2%
28 | O=C(C[C@H]1CC[C@H]2[C@@H](COC[C@H](O)CN2Cc2nccs2)O1)NCc1ccc(Oc2ccccc2)cc1 | inactive: 3.47%
29 | CCN(CC)S(=O)(=O)c1ccc(NC(=O)COC(=O)CNC(=O)C2CCCCC2)cc1 | active: 62.6%
30 | CCOC(=O)c1ccc(NC(=O)c2nc[nH]c2C(=O)NC[C@H](C)O)cc1 | active: 80.1%
31 | COc1ccc2c3c([nH]c2c1)[C@H](CO)N(C(=O)CN(C)C)CC31CCN(Cc2cncnc2)CC1 | inactive: 5.55%
32 | O=C(COc1ccc(Br)cc1)N/N=C1/SCC(=O)N1Cc1ccco1 | inconclusive: 37.3%
33 | CCOc1ccc(CCN2C(=S)N([C@@H](Cc3ccc(O)cc3)CN3CCC[C@@H]3CN3C(=S)NC[C@@H]3CC(C)C)C[C@@H]2CC(C)C)cc1 | active: 21.9%
34 | Oc1ccccc1C=NNC(=S)Nc1ccc(F)cc1 | inactive: -4.95%
35 | CCOC(=O)c1cc(S(=O)(=O)N2CCc3ccccc32)cn1C | active: 39.1%
36 | c1ccc(CCNc2ccccn2)nc1 | inconclusive: 33.8%
37 | CCN(CC)CCNC(=O)c1cc2c(-c3cccc(OC)c3)nn(C)c2s1 | inactive: -1.67%
38 | Cc1cc([N+](=O)[O-])ccc1NC(=O)CSc1nncn1-c1cccnc1 | inconclusive: 21.8%
39 | COc1ccc(OCC(=O)N/N=C\c2ccco2)cc1 | inconclusive: 20.6%
40 | CCOc1cc(N2CCOCC2)c(OCC)cc1NC(=O)c1ccc(S(=O)(=O)N2CC(C)OC(C)C2)cc1 (configuration not stated) | inactive: 0.0435%
41 | O=C(c1ccc(F)cc1)N1CC(=O)N2[C@@H](CO)[C@H](c3ccc(C#CC4CC4)cc3)[C@@H]2C1 | active: 41.3%
42 | COc1ccc(C(=O)N2c3ccccc3C=CC2C#N)cc1 (configuration not stated) | inconclusive: 24.1%
43 | COc1ccc2c3c(cccc13)C(=O)CC2 | inconclusive: 38.2%
44 | C[C@H](CO)N1C[C@H](C)[C@H](CN(C)S(C)(=O)=O)OCCCC[C@H](C)Oc2ccc(NC(=O)c3ccccc3)cc2C1=O | inconclusive: 36.1%
45 | CCOC(=O)c1c(CSc2ccccc2)n(C)c2cc(Br)c(O)c(CN(C)C)c12 | inactive: -3.32%
46 | c1cn2c(NC3CCCCC3)c(-c3ccc(SC4CCCCC4)cc3)nc2cn1 | inconclusive: 68.9%
47 | COCCNC(=O)C1CCCN(C(=O)c2cc(C)n(C(C)(C)C)n2)CC1 (configuration not stated) | inactive: -2.43%
